These are yes or no findings as the source states them, for the method shown. Binding seen in cells or lysates may run through a third protein. Some binding calls cover weakened binding; strength is not graded here.
Tests used:
[1] = target: Notch1 intracellular domain (NICD1), endogenous (human (endogenous in LUAD cells)) (UniProt P46531); assay: co-IP; MCM5 with endogenous NICD1 in LUAD cells; bait not stated
[2] = target: Notch1 intracellular domain (NICD1), endogenous (human (endogenous in LUAD cells)) (UniProt P46531); assay: proximity ligation; DuoLink In Situ Fluorescence on fixed LUAD cells; primary antibodies to MCM5 and cleaved-Notch1

The chains behind the UniProt entries cited, without tags or fusion partners. Residues count along the entry.
UniProt P46531, residues 1754-2555: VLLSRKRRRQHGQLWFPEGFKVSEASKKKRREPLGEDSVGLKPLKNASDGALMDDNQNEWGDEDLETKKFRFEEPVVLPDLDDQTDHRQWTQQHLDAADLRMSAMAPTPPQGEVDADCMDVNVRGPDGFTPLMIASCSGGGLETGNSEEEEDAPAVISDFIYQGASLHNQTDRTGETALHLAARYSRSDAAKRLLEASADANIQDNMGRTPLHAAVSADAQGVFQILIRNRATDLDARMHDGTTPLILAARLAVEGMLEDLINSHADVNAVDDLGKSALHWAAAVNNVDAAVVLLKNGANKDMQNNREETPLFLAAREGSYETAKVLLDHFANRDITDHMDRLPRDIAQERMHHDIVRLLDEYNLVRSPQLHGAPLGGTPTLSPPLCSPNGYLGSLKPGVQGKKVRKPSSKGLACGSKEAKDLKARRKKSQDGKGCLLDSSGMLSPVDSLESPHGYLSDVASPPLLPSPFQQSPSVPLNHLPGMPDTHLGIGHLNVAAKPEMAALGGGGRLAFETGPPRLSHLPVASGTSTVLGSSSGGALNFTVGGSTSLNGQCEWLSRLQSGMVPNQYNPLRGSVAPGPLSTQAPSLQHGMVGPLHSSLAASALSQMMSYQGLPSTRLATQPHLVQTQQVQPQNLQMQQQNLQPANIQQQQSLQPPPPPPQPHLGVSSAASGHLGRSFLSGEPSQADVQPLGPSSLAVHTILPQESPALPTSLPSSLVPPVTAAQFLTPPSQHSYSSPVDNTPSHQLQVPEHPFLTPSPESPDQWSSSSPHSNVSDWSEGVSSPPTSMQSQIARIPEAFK

B1: minichromosome maintenance complex component 5 (MCM5), in cells (protein, UniProt P33992 1-734)
chain: MSGFDDPGIFYSDSFGGDAQADEGQARKSQLQRRFKEFLRQYRVGTDRTGFTFKYRDELKRHYNLGEYWIEVEMEDLASFDEDLADYLYKQPAEHLQLLEEAAKEVADEVTRPRPSGEEVLQDIQVMLKSDASPSSIRSLKSDMMSHLVKIPGIIIAASAVRAKATRISIQCRSCRNTLTNIAMRPGLEGYALPRKCNTDQAGRPKCPLDPYFIMPDKCKCVDFQTLKLQELPDAVPHGEMPRHMQLYCDRYLCDKVVPGNRVTIMGIYSIKKFGLTTSRGRDRVGVGIRSSYIRVLGIQVDTDGSGRSFAGAVSPQEEEEFRRLAALPNVYEVISKSIAPSIFGGTDMKKAIACLLFGGSRKRLPDGLTRRGDINLLMLGDPGTAKSQLLKFVEKCSPIGVYTSGKGSSAAGLTASVMRDPSSRNFIMEGGAMVLADGGVVCIDEFDKMREDDRVAIHEAMEQQTISIAKAGITTTLNSRCSVLAAANSVFGRWDETKGEDNIDFMPTILSRFDMIFIVKDEHNEERDVMLAKHVITLHVSALTQTQAVEGEIDLAKLKKFIAYCRVKCGPRLSAEAAEKLKNRYIIMRSGARQHERDSDRRSSIPITVRQLEAIVRIAEALSKMKLQPFATEADVEEALRLFQVSTLDAALSGTLSGVEGFTSQEDQEMLSRIEKQLKRRFAIGSQVSEHSIIKDFTKQKYPEHAIHKVLQLMLRRGEIQHRMQRKVLYRLK
- binding [1]: binds
- binding [2]: binds

Source: article PMC10369244
